Experimental data reported in paper PMC7352364.
Results are given in words; binding and its absence hold for the method and conditions named. Binding seen in cells or lysates may run through a third protein. Some results given as binding are weak or reduced against the parent protein; the word gives no strength.

By UniProt entry, the sequences of proteins in these tests, tags left out. Where a name states a change or a piece, a line headed by the entry shows the natural chain unless it says otherwise.
UniProt P14618: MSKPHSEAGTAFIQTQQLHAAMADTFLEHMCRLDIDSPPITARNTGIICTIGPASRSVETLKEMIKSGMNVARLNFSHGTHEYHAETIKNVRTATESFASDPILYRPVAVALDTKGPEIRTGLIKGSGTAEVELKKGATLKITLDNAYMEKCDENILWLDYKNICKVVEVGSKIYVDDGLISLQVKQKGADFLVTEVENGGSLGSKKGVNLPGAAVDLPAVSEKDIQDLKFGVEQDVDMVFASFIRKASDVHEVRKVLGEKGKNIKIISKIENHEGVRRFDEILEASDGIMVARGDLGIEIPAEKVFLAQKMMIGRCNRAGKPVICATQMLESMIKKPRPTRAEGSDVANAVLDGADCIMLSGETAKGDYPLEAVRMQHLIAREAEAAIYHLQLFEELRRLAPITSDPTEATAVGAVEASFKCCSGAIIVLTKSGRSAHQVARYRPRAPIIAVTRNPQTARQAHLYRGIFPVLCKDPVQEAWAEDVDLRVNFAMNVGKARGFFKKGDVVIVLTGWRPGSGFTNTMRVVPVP
UniProt Q93009: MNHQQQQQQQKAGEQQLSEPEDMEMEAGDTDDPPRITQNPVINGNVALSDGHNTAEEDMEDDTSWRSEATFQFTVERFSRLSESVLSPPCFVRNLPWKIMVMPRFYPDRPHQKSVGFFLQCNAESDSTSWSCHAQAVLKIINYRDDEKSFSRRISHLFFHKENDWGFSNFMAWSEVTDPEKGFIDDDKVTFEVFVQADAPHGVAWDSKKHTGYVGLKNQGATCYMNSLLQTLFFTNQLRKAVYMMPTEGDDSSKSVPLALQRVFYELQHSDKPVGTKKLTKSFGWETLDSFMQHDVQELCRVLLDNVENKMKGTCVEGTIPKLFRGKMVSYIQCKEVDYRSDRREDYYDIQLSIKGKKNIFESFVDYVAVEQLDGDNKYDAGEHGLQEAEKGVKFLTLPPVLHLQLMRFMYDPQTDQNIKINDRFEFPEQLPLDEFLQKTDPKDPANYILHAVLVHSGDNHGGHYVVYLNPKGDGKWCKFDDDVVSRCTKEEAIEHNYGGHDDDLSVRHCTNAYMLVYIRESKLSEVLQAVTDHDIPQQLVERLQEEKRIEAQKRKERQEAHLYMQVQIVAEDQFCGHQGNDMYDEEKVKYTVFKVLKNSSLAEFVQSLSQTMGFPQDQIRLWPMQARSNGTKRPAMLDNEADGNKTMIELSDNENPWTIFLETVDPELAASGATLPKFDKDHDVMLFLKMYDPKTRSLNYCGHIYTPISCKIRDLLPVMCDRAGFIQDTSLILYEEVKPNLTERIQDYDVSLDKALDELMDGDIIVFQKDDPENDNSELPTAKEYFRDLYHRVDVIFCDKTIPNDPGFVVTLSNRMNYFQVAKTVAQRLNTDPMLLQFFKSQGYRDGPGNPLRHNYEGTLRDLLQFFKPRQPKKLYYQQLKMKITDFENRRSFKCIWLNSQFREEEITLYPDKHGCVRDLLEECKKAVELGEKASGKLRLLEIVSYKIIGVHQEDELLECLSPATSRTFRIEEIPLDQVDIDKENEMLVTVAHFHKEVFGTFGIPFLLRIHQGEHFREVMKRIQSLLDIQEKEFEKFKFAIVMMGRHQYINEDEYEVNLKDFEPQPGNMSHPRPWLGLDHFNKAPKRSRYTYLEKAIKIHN

Columns and labels:
GST-PKM2 fusion protein = GST-PKM2 fusion protein (UniProt P14618); experiment: pull-down; GST-PKM2 on glutathione-sepharose beads rotated with HEK293T lysates overexpressing Myc-HAUSP at 4 °C overnight; western blotting; only the target purified
Flag-PKM2 S97A = Flag-PKM2 S97A (UniProt P14618); experiment: co-IP; HEK293T cells co-transfected with Myc-HAUSP and Flag-PKM2 (wild type or mutants); lysates (50 mM Tris-HCl pH 7.5, 1 mM EDTA, 10% glycerol, 300 mM NaCl, 1% Triton X-100) immunoprecipitated with anti-Myc or anti-Flag antibody, 4 °C overnight, protein A/G agarose; western blotting
Flag-PKM2 S346A = Flag-PKM2 S346A (UniProt P14618); experiment: as above
[1] = biological target: Flag-PKM2 (pyruvate kinase isoenzyme M2, wild type) (UniProt P14618); experiment: as above
Flag-PKM2 S57A = Flag-PKM2 S57A (UniProt P14618); experiment: as above
[2] = biological target: PKM2, endogenous (human (endogenous in HEK293T)) (UniProt P14618); experiment: co-IP; endogenous proteins; HEK293T lysates immunoprecipitated with anti-HAUSP or anti-PKM2 antibody, 4 °C overnight, protein A/G agarose; western blotting

Measured: binding

Myc-HAUSP (herpesvirus-associated ubiquitin-specific protease, wild type) (from UniProt Q93009 1-1102) (enzyme)
not listed: [2]
binds: all other assays above

HAUSP, endogenous (from UniProt Q93009 1-1102) (enzyme)
binds: [2]
